Source: PubChem BioAssay (NCATS)
“And” between values parts separate entries of the source, which are not always exact repeats. Equal entries are not always repeated. The list shows a part of the results. These are further read-outs of the screen, such as a control signal, another cell line or another target. No call is given for them. Most of these compounds were active or inconclusive in the main read-out, so they are no random draw. The note in brackets gives the kind of curve behind each potency; many fits are weak. Square brackets hold non-standard residues; d marks the D form. Peptide text beside a SMILES is read from it. Orn = NCCC[CH](N)C(=O)O

Assays:
[1] = qHTS Assay for Inhibitors of PDE-IV (AID 607); details: HEK293 ACTOne CNG channel cells, membrane potential fluorescence; measured here: parental cell counter-screen
Procedure, shortened: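 Live HEK293 cells with a modified cyclic nucleotide-gated (CNG) channel report intracellular cAMP via membrane-potential dye fluorescence (ex 535/em 590 nm). Endogenous PDE-IV was targeted. Compounds were tested at up to 22.9 uM final; RO 20-1724 100 uM served as control.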

[2] = qHTS Assay for Lipid Storage Modulators (AID 1519); details: Drosophila S3 cells, BODIPY lipid droplet/cell ratio, laser cytometry, cells loaded with oleic acid
Procedure, shortened: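 Cells seeded at 5,000 per well were treated with compounds over a concentration series and loaded with oleic acid (400 uM, as added). Lipid droplet fluorescence (488 nm excitation, 500-530 nm channel) was read by laser-scanning cytometry and normalized to 20 uM Triacsin C.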

[3] = A High-Content qHTS Against Drug Library for the Identification of Small Molecules that Inhibit DYT1 Early Onset Primary Dystonia-Associated Cell Pathology (AID 1645839); details: HEK293 Flp-In EGFP-delE TorsinA, punctate imaging, 48 h; measured here: cell count cytotoxicity
Procedure, shortened: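 High-content imaging quantified EGFP-TorsinA mislocalization in HEK293-derived cells inducibly expressing DYT1 mutant torsinA, after 48 h exposure to compound given together with tetracycline induction. Cell count served as a toxicity channel alongside %pathology.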

[4] = S16 Schwann cell PMP22 intronic element beta-lactamase assay (AID 624044); details: S16 rat Schwann cells, PMP22 element beta-lactamase FRET, 24 h
Procedure, shortened: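 Beta-lactamase reporter under a PMP22 intronic regulatory element in stable S16 rat Schwann cells; 24 h compound exposure. 460 nm blue signal normalized between DMSO (0%) and potassium clavulanate, with 535 nm FRET tracking viability; curves classed by r2 and response.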

[5] = measured here: cell count channel max response
[6] = measured here: cell number channel AC50
[7] = measured here: lipid (BODIPY) channel AC50
[8] = measured here: lipid channel max response
[9] = measured here: 460 nm blue channel
[10] = measured here: 530 nm viability channel

Structure (SMILES) | AC50 [1] | max response [2, 5] | AC50 [2, 6] | AC50 [2, 7] | max response [2, 8] | AC50 [3] | AC50 [4, 9] | AC50 [4, 10]
O=C(c1ccc(F)cc1)C1CCN(CCn2c(=S)[nH]c3ccccc3c2=O)CC1 | 20 µM [rising, single point] | 81.4% | 22.4 µM [rising, partial curve] | 28.2 µM [rising, partial curve] | 99.1% | – | – | –
N=C(C[C@@H](O)COc1ccccc1-c1ccccc1)N1CCCCC1 | 25.1 µM [rising, single point] | 32.9% | 35.5 µM [rising, single point] | 3.16 µM [rising, full curve, poor fit] | 33.9% | – | – | –
O=C(Nc1ccccc1)N1CC2(CCN(C(=O)c3cnccn3)CC2)C1 | 7.94 µM [rising, partial curve, poor fit] | 4.5% | 3.98 µM [rising, single point] | 4.47 µM [rising, partial curve, poor fit] | 11.2% | – | – | –
COc1ccccc1CC(=N)N1C[C@@H]2C(=O)CCC(c3ccccc3)(c3ccccc3)[C@@H]2C1 | 15.8 µM [rising, single point] | 83.6% | 3.98 µM [rising, full curve] | 3.55 µM [rising, full curve] | 108% | – | – | –
Clc1ccccc1CNCC1CCC(CNCc2ccccc2Cl)CC1 (stereo not given) | 12.6 µM [rising, partial curve] | 67.5% | 35.5 µM [rising, partial curve, poor fit] | 35.5 µM [rising, partial curve, poor fit] | 84.1% | – | – | –
Cc1cccc(CNc2ccnc(-c3ccccc3C(F)(F)F)n2)c1 | 15.8 µM [rising, partial curve] | 33.7% | 4.47 µM [rising, full curve, poor fit] | 4.47 µM [rising, full curve, poor fit] | 41.6% | – | – | –
COc1ccc2cc(CCC(C)=O)ccc2c1 | – | 19.3% | – | 31.6 µM [rising, single point] | 36.7% | 11.2 µM [falling, partial curve] | – | –
Cc1cccc(Nc2cc(Cl)nc(SCC(=O)O)n2)c1C | 15.8 µM [rising, single point] | 30.7% and 17.9% | 6.31 µM [rising, full curve, poor fit] | 7.08 µM [rising, full curve, poor fit] and 15.8 µM [rising, partial curve, poor fit] | 47.5% and 38.9% | – | – | –
NC(=NC1C2CC3CC(C2)CC1C3)Nc1ccc(I)cc1 (stereo not given) | 5.01 µM [rising, partial curve, poor fit] | 35.8% | 7.08 µM [rising, full curve, poor fit] | 10 µM [rising, partial curve, poor fit] | 47.2% | – | – | –
COc1ccccc1CNc1ncnc2ccc(-c3ccc4c(c3)OCO4)cc12 | 12.6 µM [rising, single point] | 18.5% | 0.0631 µM [rising, full curve, poor fit] | 0.251 µM [rising, full curve, poor fit] | 20.7% | – | – | –
COc1ccccc1-c1cncnc1NCc1cccs1 | 15.8 µM [rising, single point] | 30.8% | 0.0251 µM [rising, full curve, poor fit] | 0.355 µM [rising, full curve, poor fit] | 36.5% | – | – | –
Cc1cccc([C@@H]2CN(C)CCc3c2cc(O)c(O)c3Cl)c1 | 20 µM [rising, single point] | 60% | 15.8 µM [rising, partial curve, poor fit] | 15.8 µM [rising, partial curve, poor fit] | 57% | – | – | –
CN(C)CCOC(c1ccc(Cl)cc1)c1ccccn1 (stereo not given) | – | 25.7% | – | 35.5 µM [rising, single point] | 41.1% | 35.5 µM [falling, single point] | – | –
COc1ccc2oc(-c3ccccc3)c(OC)c(=O)c2c1 | 12.6 µM [rising, partial curve] | 93.1% | 2.51 µM [rising, full curve] | 3.55 µM [rising, partial curve] | 122% | – | – | –
CC1(C)CCC(NC(=O)[C@@H](N)CCC(=O)O)CC1 | – | -71.5% | 0.00891 µM [falling, full curve, poor fit] | 0.00891 µM [falling, full curve, poor fit] | -71.1% | – | 1.41 µM [falling, partial curve, poor fit] | –
COc1ccc(C2C(=O)c3ccccc3C2=O)cc1 | – | 31% | 22.4 µM [rising, single point] | 39.8 µM [rising, single point] | 61.6% | – | 1.78 µM [falling, partial curve, poor fit] | –
Cc1cc(-c2ccc(N=Nc3ccc4c(S(=O)(=O)O)cc(S(=O)(=O)O)c(N)c4c3O)c(C)c2)ccc1N=Nc1ccc2c(S(=O)(=O)O)cc(S(=O)(=O)O)c(N)c2c1O | – | 93.6% | 12.6 µM [rising, partial curve] | 12.6 µM [rising, partial curve] | 129% | – | 1.41 µM [falling, full curve, poor fit] | 2 µM [falling, full curve, poor fit]
CCOC(=O)C1=C[C@@]2(CC)CCCN3CCc4c(n1c1ccccc41)[C@H]32 | 25.1 µM [rising, single point] | 53.2% | 35.5 µM [rising, single point] | 39.8 µM [rising, partial curve, poor fit] | 83.4% | – | 1.99 µM [falling, full curve, poor fit] | –
CC[C@]1([C@H]2O[C@@H]([C@@H]3O[C@](O)(CO)[C@@H](C)C[C@H]3C)C[C@H]2C)CC[C@@H]([C@]2(C)CC[C@@]3(C[C@@H](O)[C@@H](C)[C@@H]([C@H](C)[C@H](OC)[C@H](C)C(=O)O)O3)O2)O1 | – | -26.6% | 0.708 µM [falling, full curve, poor fit] | 5.62 µM [falling, partial curve, poor fit] | -84.1% | – | 0.501 µM [falling, full curve] | –
O=C1c2ccccc2C(Cc2ccncc2)(Cc2ccncc2)c2ccccc21 | 15.8 µM [rising, partial curve] | 69.8% | 2.24 µM [rising, full curve] | 1.78 µM [rising, full curve, poor fit] | 76.2% | – | – | –
COc1cccc(OC)c1OCCNC[C@@H]1COc2ccccc2O1 | 15.8 µM [rising, partial curve, poor fit] and 12.6 µM [rising, partial curve] | 78.4% | 14.1 µM [rising, partial curve, poor fit] | 12.6 µM [rising, partial curve, poor fit] | 107% | – | – | –
O=C(O)c1cc(O)c(O)c(O)c1 | – | 16% | – | 25.1 µM [rising, single point] | 34.1% | 3.55 µM [falling, partial curve, poor fit] | – | –
COc1ccc(CNc2ncnc3ccc(-c4ccc5c(c4)OCO5)cc23)c(OC)c1 | 12.6 µM [rising, partial curve] | 17.5% | 3.16 µM [rising, partial curve] | 2.51 µM [rising, partial curve, poor fit] | 15.7% | – | – | –
COc1ccc2c(=O)cc(-c3ccc(O)cc3)oc2c1 | 15.8 µM [rising, single point] | 111% | 7.94 µM [rising, partial curve] | 8.91 µM [rising, partial curve] | 149% | – | – | –
CC(C)CC1NC(=O)C(CCCN)NC(=O)C(C(C)C)NC(=O)C2CCCN2C(=O)C(Cc2ccccc2)NC(=O)C(CC(C)C)NC(=O)C(CCCN)NC(=O)C(C(C)C)NC(=O)C2CCCN2C(=O)C(Cc2ccccc2)NC1=O (stereo not given) (cyclo(FPV[Orn]LFPV[Orn]L); configuration not given here) | – | -101% | 10 µM [falling, partial curve] | 0.0112 µM [falling, full curve] | -103% | – | 2.51 µM [falling, full curve] | 12.6 µM [rising, full curve]
COc1cccc(-c2cncnc2NCc2ccccc2OC)c1 | 10 µM [rising, single point] | 54.1% | 12.6 µM [rising, partial curve, poor fit] | 4.47 µM [rising, partial curve] | 61.3% | – | – | –
CCC1OC(=O)C[C@H](O)C(C)[C@@H](O[C@@H]2OC(C)C(O)C(N(C)C)C2O)C(CCN2CC(C)CC(C)C2)CC(C)C(=O)/C=C/C(C)=C\[C@@H]1COC1OC(C)C(O)C(OC)C1OC (stereo not given in full) | – | 30.1% | 39.8 µM [rising, single point] | 39.8 µM [rising, single point] | 47.6% | – | 0.0794 µM [falling, full curve, poor fit] | –
Cc1c(-c2ccccc2)oc2cc(O)ccc2c1=O | 12.6 µM [rising, single point] | 57.2% | 15.8 µM [rising, partial curve, poor fit] | 28.2 µM [rising, partial curve, poor fit] | 73.8% | – | – | –

Part of the list above, as a markdown table:

| Structure (SMILES) | AC50 [1] | max response [2, 5] | AC50 [2, 6] | AC50 [2, 7] | max response [2, 8] | AC50 [3] | AC50 [4, 9] | AC50 [4, 10] |
| --- | --- | --- | --- | --- | --- | --- | --- | --- |
| COc1ccccc1CNc1ncnc2ccc(-c3ccc4c(c3)OCO4)cc12 | 12.6 µM [rising, single point] | 18.5% | 0.0631 µM [rising, full curve, poor fit] | 0.251 µM [rising, full curve, poor fit] | 20.7% | – | – | – |
| Cc1cccc([C@@H]2CN(C)CCc3c2cc(O)c(O)c3Cl)c1 | 20 µM [rising, single point] | 60% | 15.8 µM [rising, partial curve, poor fit] | 15.8 µM [rising, partial curve, poor fit] | 57% | – | – | – |
| CC1(C)CCC(NC(=O)[C@@H](N)CCC(=O)O)CC1 | – | -71.5% | 0.00891 µM [falling, full curve, poor fit] | 0.00891 µM [falling, full curve, poor fit] | -71.1% | – | 1.41 µM [falling, partial curve, poor fit] | – |
| COc1ccc(C2C(=O)c3ccccc3C2=O)cc1 | – | 31% | 22.4 µM [rising, single point] | 39.8 µM [rising, single point] | 61.6% | – | 1.78 µM [falling, partial curve, poor fit] | – |
| Cc1cc(-c2ccc(N=Nc3ccc4c(S(=O)(=O)O)cc(S(=O)(=O)O)c(N)c4c3O)c(C)c2)ccc1N=Nc1ccc2c(S(=O)(=O)O)cc(S(=O)(=O)O)c(N)c2c1O | – | 93.6% | 12.6 µM [rising, partial curve] | 12.6 µM [rising, partial curve] | 129% | – | 1.41 µM [falling, full curve, poor fit] | 2 µM [falling, full curve, poor fit] |
